Results: article PMC4935465
No constants are given. Whether binding was seen depends on the method and setting. For some of these results: In cells and extracts the contact can be indirect. Some results given as binding are weak or reduced against the parent protein; the word gives no strength. Tags and fused reporters may be left off the sequences shown.

T1: Vps8-HA (Drosophila melanogaster) (UniProt Q9VRX2)
T1 sequence: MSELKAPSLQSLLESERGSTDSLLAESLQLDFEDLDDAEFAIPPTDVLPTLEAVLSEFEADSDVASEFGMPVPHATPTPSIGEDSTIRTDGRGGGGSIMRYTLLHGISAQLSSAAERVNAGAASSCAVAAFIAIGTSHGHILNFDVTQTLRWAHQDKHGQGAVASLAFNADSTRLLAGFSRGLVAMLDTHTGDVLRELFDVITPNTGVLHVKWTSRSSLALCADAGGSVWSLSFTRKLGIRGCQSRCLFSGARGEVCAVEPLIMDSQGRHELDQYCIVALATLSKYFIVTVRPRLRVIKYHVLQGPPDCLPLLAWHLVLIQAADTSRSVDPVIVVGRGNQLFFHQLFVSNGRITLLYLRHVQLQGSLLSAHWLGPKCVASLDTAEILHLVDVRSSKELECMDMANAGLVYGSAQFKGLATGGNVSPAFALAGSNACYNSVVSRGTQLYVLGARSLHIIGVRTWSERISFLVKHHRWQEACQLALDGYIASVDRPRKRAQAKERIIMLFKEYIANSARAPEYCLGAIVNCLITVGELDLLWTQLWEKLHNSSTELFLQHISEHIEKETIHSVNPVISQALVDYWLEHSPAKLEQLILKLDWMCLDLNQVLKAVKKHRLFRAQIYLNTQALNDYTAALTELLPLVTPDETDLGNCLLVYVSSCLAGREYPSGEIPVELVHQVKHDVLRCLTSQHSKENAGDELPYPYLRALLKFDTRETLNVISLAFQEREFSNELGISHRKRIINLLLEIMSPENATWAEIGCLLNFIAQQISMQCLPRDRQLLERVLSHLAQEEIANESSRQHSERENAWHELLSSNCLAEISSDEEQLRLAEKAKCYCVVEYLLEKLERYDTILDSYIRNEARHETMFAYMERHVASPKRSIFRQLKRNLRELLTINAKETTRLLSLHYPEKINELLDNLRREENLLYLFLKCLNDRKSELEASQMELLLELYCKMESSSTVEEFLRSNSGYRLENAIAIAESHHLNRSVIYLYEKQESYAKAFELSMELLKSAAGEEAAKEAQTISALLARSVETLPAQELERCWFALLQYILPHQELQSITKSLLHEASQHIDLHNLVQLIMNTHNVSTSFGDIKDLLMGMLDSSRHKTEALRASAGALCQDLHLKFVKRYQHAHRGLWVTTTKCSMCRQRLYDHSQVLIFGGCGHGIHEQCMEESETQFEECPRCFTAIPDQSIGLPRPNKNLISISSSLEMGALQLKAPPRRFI

T2: Vps8 (yeast two-hybrid fusion) (Drosophila melanogaster) (UniProt Q9VRX2)
T2 sequence: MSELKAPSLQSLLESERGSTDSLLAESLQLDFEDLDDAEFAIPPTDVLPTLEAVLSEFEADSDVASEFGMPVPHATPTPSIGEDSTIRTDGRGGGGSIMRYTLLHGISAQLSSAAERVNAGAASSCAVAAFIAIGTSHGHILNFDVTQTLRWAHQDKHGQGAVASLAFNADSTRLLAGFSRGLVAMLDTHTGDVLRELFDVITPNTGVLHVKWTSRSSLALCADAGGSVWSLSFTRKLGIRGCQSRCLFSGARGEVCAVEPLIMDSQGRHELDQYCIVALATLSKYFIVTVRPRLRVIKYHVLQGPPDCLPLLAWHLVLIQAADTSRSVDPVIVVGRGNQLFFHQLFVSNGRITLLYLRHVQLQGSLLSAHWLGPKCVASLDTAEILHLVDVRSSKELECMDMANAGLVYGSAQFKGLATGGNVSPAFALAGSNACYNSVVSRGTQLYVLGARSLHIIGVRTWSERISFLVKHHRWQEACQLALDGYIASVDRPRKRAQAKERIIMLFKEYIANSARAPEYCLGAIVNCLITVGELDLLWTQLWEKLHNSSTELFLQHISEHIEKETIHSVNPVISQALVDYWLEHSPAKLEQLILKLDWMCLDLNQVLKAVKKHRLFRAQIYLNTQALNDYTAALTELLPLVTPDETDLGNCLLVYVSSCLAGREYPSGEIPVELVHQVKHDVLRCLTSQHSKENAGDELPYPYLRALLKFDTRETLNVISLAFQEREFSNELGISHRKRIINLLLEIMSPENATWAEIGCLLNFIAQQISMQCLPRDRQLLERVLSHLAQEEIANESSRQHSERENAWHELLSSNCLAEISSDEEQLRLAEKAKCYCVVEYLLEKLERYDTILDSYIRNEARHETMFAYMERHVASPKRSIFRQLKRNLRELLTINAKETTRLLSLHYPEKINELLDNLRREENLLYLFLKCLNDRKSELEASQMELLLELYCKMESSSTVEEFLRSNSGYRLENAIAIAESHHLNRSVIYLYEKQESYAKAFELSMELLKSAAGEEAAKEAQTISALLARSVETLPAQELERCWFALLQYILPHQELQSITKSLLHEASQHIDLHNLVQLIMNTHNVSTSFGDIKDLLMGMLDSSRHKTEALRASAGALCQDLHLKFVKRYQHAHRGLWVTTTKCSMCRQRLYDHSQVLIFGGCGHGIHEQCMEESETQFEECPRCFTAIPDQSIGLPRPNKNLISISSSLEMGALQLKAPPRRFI


Key:
[1] = molecular target: T1, Vps8-HA (Drosophila melanogaster); assay: co-IP; Vps8-HA precipitated with anti-HA beads from cleared lysates of vps8-HA; vps8^1/Df adults or larvae (w^1118 as control); lysis buffer 0.25% Triton X-100, 150 mM NaCl, 1 mM EDTA, 20 mM Tris-HCl pH 7.5; 4 hr at 4°C; western blot with anti-Car, anti-Dor, anti-Vps16A
[2] = molecular target: T2, Vps8 (yeast two-hybrid fusion) (Drosophila melanogaster); assay: two-hybrid; pGADT7 AD and pGBKT7 BD fusions in yeast strain PJ69-4A; growth on Trp-, Leu-, Ade- plates; empty vectors as negative controls

| binding [1] | binding [2] | Binder |
| --- | --- | --- |
| binds |  | Car/Vps33A (protein, UniProt Q9Y1I2 1-617) MFPHLKGHGQRVNLQLLQEAACRELLQQLDRIEGSKVIVLDETMIGPLDLVTRPKLFADRGIRLLALKPELHLPREVANVVYVMRPRVALMEQLAAHVKAGGRAAAGRQYHILFAPRRSCLCVSQLEVSGVLGSFGNIEELAWNYLPLDVDLVSMEMPNAFRDVSVDGDTSSLYQAAVGLVQLQRLYGRIPKIYGKGEFAHRVWEHAKQLGRDERTLYNGDKGVVDQLILLDRSIDLLSPLATQLTYEGLIDEFYGIRQNKLTLPAENFPSDGALPGGGGSGPRVEESQSLLGDTEKKTILLHSGEQLYAELRNKHFNEVTKLLARKAREIHVQMHATSQDKSVQEIKSFVENLLPQLMAQKKATSEHTAIAGLLHEQVNAVRFADDLAAEQEFMVCADIDKPSAYIEDLIACRVELNRVLRLICMQCHAASGFKEKLLNHYKRELVHVYGLEVLLTISNLEKSGLLHLQTESRAYSVLRKTLHLTVDDNVEIEPKDISYVHSFYAPLTARIVEHSLKPLGWQTLKSQINNLPGPTFEDFQAQLVGIGGRHTVTTVSEGSLLNVPRVVLVCFVGGCTFAEIAALRFLAAQEDNNVEFLIATTKVVNKHSFLDSLMSS |
| binds |  | Dor/Vps18 (protein, UniProt Q24314 1-1002) MDTSMPNQPKFLPRIEHNSSGATANSYVATASGNPFETDEEDEIFSRHKMVLRVPSNCTGDLMHLAVSRNWLVCLLGTPERTTLLRFFLPRAIPPGEAVLEKYLSGSGYKITRMFLDPTGHHIIIALVPKSATAGVSPDFLYIHCLESPQAQQLKVRRIEKFKDHEITAVAFNPYHGNESSTGPILLGTSRGLIFETELNPAADGHVQRKQLYDLGLGRPKYPITGLKLLRVPNSSRYIIVVTSPECIYTFQETLKAEERSLQAIFAGYVSGVQEPHCEERKTDLTFSQLRFFAPPNSKYPKQWAWLCGEGIRVGELSIEANSAATLIGNTLINLDFEKTMHLSYGERRLNTPKAFVLTEYHAVLLYADHVRAICLLNQEQVYQEAFDEARVGKPLSIERDELTGSIYVYTVKTVFNLRVTREERNVWRIYLDKGQYELATAHAAEDPEHLQLVLCQRADAAFADGSYQVAADYYAETDKSFEEVCLKFMVLPDKRPIINYVKKRLSRVTTKPMETDELDEDKMNIIKALVIWLIDLYLIQINMPDKDEEWRSSWQTEYDEFMMEAHVLSCTRQNRETVRQLIAEHADPRNMAQFAIAIGDYDEVVAQQLKAECYAEALQTLINQRNPELFYKYAPELITRLPKPTVDALMAQGSRLEVEKLVPTLIIMENREQREQTQRYLEFAIYKLNTTNDAIHNFLLHLYAEHEPKLLMKYLEIQGRDESLVHYDIYYAHKVCTDLDVKEARVFLECMLRKWISAVDLALTFDMKLAKETASRPSDSKIRRKLWLRIAYHDIKGTNDVKKALNLLKECDLLRIEDLLPFFADFEKIDNFKEAICDALRDYNQRIQELQREMAETTEQTDRVTAELQQLRQHSLTVESQDTCEICEMMLLVKPFFIFICGHKFHSDCLEKHVVPLLTKEQCRRLGTLKQQLEAEVQTQAQPQSGALSKQQAMELQRKRAALKTEIEDILAADCLFCGLLISTIDQPFVDDWEQVNVEWE |

Further lines, the binder ahead of its results:

| Binder | binding [1] | binding [2] |
| --- | --- | --- |
| Dor/Vps18 (yeast two-hybrid fusion) (protein, UniProt Q24314 1-1002) MDTSMPNQPKFLPRIEHNSSGATANSYVATASGNPFETDEEDEIFSRHKMVLRVPSNCTGDLMHLAVSRNWLVCLLGTPERTTLLRFFLPRAIPPGEAVLEKYLSGSGYKITRMFLDPTGHHIIIALVPKSATAGVSPDFLYIHCLESPQAQQLKVRRIEKFKDHEITAVAFNPYHGNESSTGPILLGTSRGLIFETELNPAADGHVQRKQLYDLGLGRPKYPITGLKLLRVPNSSRYIIVVTSPECIYTFQETLKAEERSLQAIFAGYVSGVQEPHCEERKTDLTFSQLRFFAPPNSKYPKQWAWLCGEGIRVGELSIEANSAATLIGNTLINLDFEKTMHLSYGERRLNTPKAFVLTEYHAVLLYADHVRAICLLNQEQVYQEAFDEARVGKPLSIERDELTGSIYVYTVKTVFNLRVTREERNVWRIYLDKGQYELATAHAAEDPEHLQLVLCQRADAAFADGSYQVAADYYAETDKSFEEVCLKFMVLPDKRPIINYVKKRLSRVTTKPMETDELDEDKMNIIKALVIWLIDLYLIQINMPDKDEEWRSSWQTEYDEFMMEAHVLSCTRQNRETVRQLIAEHADPRNMAQFAIAIGDYDEVVAQQLKAECYAEALQTLINQRNPELFYKYAPELITRLPKPTVDALMAQGSRLEVEKLVPTLIIMENREQREQTQRYLEFAIYKLNTTNDAIHNFLLHLYAEHEPKLLMKYLEIQGRDESLVHYDIYYAHKVCTDLDVKEARVFLECMLRKWISAVDLALTFDMKLAKETASRPSDSKIRRKLWLRIAYHDIKGTNDVKKALNLLKECDLLRIEDLLPFFADFEKIDNFKEAICDALRDYNQRIQELQREMAETTEQTDRVTAELQQLRQHSLTVESQDTCEICEMMLLVKPFFIFICGHKFHSDCLEKHVVPLLTKEQCRRLGTLKQQLEAEVQTQAQPQSGALSKQQAMELQRKRAALKTEIEDILAADCLFCGLLISTIDQPFVDDWEQVNVEWE |  | binds |
| Vps16A (protein, UniProt Q9VHG1 1-833) MPIMYNTGEWFKVRPDYYRKVELATPDWPLDLDLEYMWVEVAPYGGPLAVTRDPTKLVPVKGNARPMIRIFDTTGREMGHILWNHGKLIAMGWSDMEELICIQENATVFVYDMFGREKESYSIGDEASVTKIVEGKVFQSSAGTGVAVMTTSGRVFLKQNSSKTERKLPDIPNSSMNCSCWEIVTEGRNSYCLLGRDREVIKLFPGETVGTITANLFEKPHERIIKISVSYNHQHLALYTNTGLLWLGSVDMRQKYCEFDTGRKDMPLQMEWIMNSDNSEADAVVISYPSYLLIVNRNADRSDFPYDPVMFLVAEMDGVRIITQSSHEIIQRLPKCVENIFAVNSQEPASYLFEAQKKFEEKSYKSDEYLSMCREKIDLAVSECIEAASYEFCPETQKSLLRTAYFGKGFIRNHNPDEYMRIMRILRVLNTLRHERIAMPITFKQFSHLNTEVILSRLVFRKHYAIAIQVAKHLNLPESWILEHWAYHKVMNDPNDTEVARKITEKFKNPSVEGISFCNIASKAHQAGRDDLAIKLLELESRASLHVPLLLKMRKFDRAVGSATQSGDTELITQVLLEMKMHMMLSNLHMTIRDHPLALNIYKKIMRESNRAGLYGIYNTEDDQKAIAEYHFQNAIETEGLESNLSMIGNAYAQGRCTLEAELCADTSRLIKLQKTLSTKYNVSLNGLSIHETIQELLLIGELKEAERIRSEFKVPDRRFWWLRILTLSSQHKWEELEKLAKSKKSPIGYDPFVEVCLKQDNVMEARKYIPRCRDNRRVVWYMRANLFNEAIDSAFEQRDVHSLFELQKNQAIVNNGTLLSKVCDCIAMLEGK | binds |  |
